For at least one compound, name, drawing or mass did not settle the structure.
Key:
[1] = test system: neonatal rat ventricular myocytes (NRVM); test: in vitro ischemia/reperfusion, viability of NRVM; assay type: cell-based
[2] = test system: cerebral I/R damage; test: in vivo cerebral ischemia/reperfusion (middle cerebral artery occlusion); design: species or system mouse; settings: male mice, 24 h after reperfusion
[3] = test system: secretory proteostasis; test: Gaussia luciferase secretion assay in NRVM; assay type: cell-based, rat
[4] = test system: PERK or IRE1; test: immunoblot of the other UPR arms in cultured cardiac myocytes (NRVM); assay type: cell-based, rat; settings: 10 μM, 24 hours
[5] = test system: ex vivo I/R injury of the heart; test: ex vivo ischemia/reperfusion of isolated perfused hearts from treated mice; design: species or system mouse
[6] = test system: neonatal rat ventricular myocytes (NRVM); test: viability of NRVM treated with tunicamycin; assay type: cell-based
[7] = target: T1, ATF6 (Rattus norvegicus, UniProt G3V909); test: immunocytofluorescence of ATF6 nuclear translocation in NRVM; assay type: cell-based; settings: 24 hours after treatment
T1 construct: Full-length Atf6 (p90) was detected with an antibody from SAB Signalway; endogenous in cells; host or cells: neonatal rat ventricular myocytes (NRVM)
T1 sequence (G3V909 1-656): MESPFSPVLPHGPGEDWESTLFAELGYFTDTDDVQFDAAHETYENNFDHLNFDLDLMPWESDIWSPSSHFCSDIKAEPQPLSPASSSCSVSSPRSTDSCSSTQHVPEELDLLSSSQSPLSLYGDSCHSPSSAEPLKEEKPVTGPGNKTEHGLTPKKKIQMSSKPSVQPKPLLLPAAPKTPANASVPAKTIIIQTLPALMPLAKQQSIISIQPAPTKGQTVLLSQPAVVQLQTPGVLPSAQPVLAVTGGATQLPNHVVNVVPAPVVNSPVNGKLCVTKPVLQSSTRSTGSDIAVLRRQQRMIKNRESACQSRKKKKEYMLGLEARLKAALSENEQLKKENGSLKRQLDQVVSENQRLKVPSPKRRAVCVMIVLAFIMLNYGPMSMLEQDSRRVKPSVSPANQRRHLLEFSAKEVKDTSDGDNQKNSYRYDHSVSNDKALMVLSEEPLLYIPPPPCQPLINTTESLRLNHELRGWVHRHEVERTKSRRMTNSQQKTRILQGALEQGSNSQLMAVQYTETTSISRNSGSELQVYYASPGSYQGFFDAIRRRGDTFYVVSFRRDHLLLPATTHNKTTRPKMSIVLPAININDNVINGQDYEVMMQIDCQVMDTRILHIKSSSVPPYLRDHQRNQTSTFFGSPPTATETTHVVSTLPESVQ

[8] = test system: IRE1-regulated Erdj4, PERK-regulated Atf4; test: qPCR for IRE1 and PERK target genes in mouse hearts; assay type: in vivo
Procedure: Immunoblot analysis. NRVM were lysed and subjected to immunoblot analysis, as previously described^10. In brief, cultures were lysed with VC lysis buffer made from 20 mM Tris-HCl (pH 7.5), 150 mM NaCl, 0.1% SDS, 1% Triton X-100™, protease inhibitor cocktail (Roche Diagnostics, Indianapolis, IN) and phosphatase inhibitor cocktail (Roche Diagnostics). Samples comprising 10 μg of protein were mixed with Laemmli sample buffer, boiled, then subjected to SDS-PAGE followed by transfer onto PVDF membranes for immunoblotting. Full-length Atf6 (p90) was detected with an antibody from SAB Signalway™ Antibody (1:1000, cat #32008, College Park, MD), while active Atf6 (p50) was detected with an antibody from Proteintech™ (1:1000, cat #24169-1-AP, Rosemont, IL). […] The oxidation state of ATF6 in NRVM treated with compound 147 was analyzed by gel-shift essentially as previously described^32. […]
Malondialdehyde assay. Lipid peroxidation was determined by measuring the levels of malondialdehyde (MDA) using a TBARS assay kit (Cayman Chemical, Ann Arbor, MI) according to the manufacturer's instructions as previously described^10. […]

[9] = test system: renal I/R damage; test: in vivo renal ischemia/reperfusion; design: species or system mouse; settings: male mice, 24 h after reperfusion
[10] = target: T1, ATF6; test: immunoblot / AMS gel-shift of ATF6 in cultured cardiac myocytes (NRVM); assay type: cell-based; settings: 10 μM, 24 hours
[11] = hearts from ATF6 cKO mice treated 24 h
[12] = hearts from WT mice treated 24 h, 2 mg/kg IV, vs control

## Cc1ccc(O)c(NC(=O)CCc2ccccc2)c1 [compound 147]
[1]; siAtf6 (knockdown of Atf6)
  survival (viability) of cardiac myocytes subjected to I/R: lost upon knockdown of Atf6
[1]; siCon, 10 μM
  survival (viability) of cardiac myocytes subjected to I/R: significantly improved survival
[2]
  behavioral indicators of post-ischemic neurological deficit (Bederson neurological score): improved
[2]; 2 mg/kg IV
  infarct size in the brain: significantly decreased infarct sizes
[3]; siAtf6 (knockdown of Atf6)
  secretion of ectopically expressed Gaussia luciferase: lost upon knockdown of Atf6
[3]; siCon, 24 hours
  secretion of ectopically expressed Gaussia luciferase: increased secretion of a protein folded in the ER
[4]
  PERK or IRE1 activation (UPR pathway immunoblots): not PERK or IRE1
[5]; [11]
  LVDP recovery after ex vivo I/R: neither of these beneficial effects
  infarct sizes after ex vivo I/R: neither of these beneficial effects
[5]; [12]
  LVDP recovery after ex vivo I/R: greater LVDP recovery
  infarct sizes after ex vivo I/R: smaller infarct sizes
[6]; siAtf6 (knockdown of Atf6)
  viability in response to ER protein misfolding induced by tunicamycin: lost upon knockdown of Atf6
[6]; siCon, 24 h
  viability in response to ER protein misfolding induced by tunicamycin: protected cells from death
[7]
  nuclear translocation of ATF6: increased the nuclear translocation of ATF6
[8]; Trial 2 (injected at days 0 and 4) vs Trial 1, mice without I/R, day 7
  expression of Erdj4 or Atf4 in LV: not the IRE1-regulated Erdj4 or the PERK-regulated Atf4
[8]; chronic I/R, Trials 5 and 6, border zone
  expression of Erdj4 and Atf4: not Erdj4 and Atf4
[9]
  plasma creatinine: decreased
[9]; 2 mg/kg IV
  infarct size in the kidney: significantly decreased infarct sizes
[10]
  ATF6 activation (UPR pathway immunoblots): activated ATF6
[10]; non-reducing conditions
  disulfide bond status of ATF6: reduced intramolecular disulfide bonds in ATF6
